Laboratory results as given in article PMC6231325.
Results are given in words; binding and its absence hold for the method and conditions named. In cells and extracts the contact can be indirect. Some binding calls cover weakened binding; strength is not graded here. Tags and fused reporters may be left off the sequences shown.

Amino acid sequences for entries named in this document (tags omitted).
UniProt Q05152: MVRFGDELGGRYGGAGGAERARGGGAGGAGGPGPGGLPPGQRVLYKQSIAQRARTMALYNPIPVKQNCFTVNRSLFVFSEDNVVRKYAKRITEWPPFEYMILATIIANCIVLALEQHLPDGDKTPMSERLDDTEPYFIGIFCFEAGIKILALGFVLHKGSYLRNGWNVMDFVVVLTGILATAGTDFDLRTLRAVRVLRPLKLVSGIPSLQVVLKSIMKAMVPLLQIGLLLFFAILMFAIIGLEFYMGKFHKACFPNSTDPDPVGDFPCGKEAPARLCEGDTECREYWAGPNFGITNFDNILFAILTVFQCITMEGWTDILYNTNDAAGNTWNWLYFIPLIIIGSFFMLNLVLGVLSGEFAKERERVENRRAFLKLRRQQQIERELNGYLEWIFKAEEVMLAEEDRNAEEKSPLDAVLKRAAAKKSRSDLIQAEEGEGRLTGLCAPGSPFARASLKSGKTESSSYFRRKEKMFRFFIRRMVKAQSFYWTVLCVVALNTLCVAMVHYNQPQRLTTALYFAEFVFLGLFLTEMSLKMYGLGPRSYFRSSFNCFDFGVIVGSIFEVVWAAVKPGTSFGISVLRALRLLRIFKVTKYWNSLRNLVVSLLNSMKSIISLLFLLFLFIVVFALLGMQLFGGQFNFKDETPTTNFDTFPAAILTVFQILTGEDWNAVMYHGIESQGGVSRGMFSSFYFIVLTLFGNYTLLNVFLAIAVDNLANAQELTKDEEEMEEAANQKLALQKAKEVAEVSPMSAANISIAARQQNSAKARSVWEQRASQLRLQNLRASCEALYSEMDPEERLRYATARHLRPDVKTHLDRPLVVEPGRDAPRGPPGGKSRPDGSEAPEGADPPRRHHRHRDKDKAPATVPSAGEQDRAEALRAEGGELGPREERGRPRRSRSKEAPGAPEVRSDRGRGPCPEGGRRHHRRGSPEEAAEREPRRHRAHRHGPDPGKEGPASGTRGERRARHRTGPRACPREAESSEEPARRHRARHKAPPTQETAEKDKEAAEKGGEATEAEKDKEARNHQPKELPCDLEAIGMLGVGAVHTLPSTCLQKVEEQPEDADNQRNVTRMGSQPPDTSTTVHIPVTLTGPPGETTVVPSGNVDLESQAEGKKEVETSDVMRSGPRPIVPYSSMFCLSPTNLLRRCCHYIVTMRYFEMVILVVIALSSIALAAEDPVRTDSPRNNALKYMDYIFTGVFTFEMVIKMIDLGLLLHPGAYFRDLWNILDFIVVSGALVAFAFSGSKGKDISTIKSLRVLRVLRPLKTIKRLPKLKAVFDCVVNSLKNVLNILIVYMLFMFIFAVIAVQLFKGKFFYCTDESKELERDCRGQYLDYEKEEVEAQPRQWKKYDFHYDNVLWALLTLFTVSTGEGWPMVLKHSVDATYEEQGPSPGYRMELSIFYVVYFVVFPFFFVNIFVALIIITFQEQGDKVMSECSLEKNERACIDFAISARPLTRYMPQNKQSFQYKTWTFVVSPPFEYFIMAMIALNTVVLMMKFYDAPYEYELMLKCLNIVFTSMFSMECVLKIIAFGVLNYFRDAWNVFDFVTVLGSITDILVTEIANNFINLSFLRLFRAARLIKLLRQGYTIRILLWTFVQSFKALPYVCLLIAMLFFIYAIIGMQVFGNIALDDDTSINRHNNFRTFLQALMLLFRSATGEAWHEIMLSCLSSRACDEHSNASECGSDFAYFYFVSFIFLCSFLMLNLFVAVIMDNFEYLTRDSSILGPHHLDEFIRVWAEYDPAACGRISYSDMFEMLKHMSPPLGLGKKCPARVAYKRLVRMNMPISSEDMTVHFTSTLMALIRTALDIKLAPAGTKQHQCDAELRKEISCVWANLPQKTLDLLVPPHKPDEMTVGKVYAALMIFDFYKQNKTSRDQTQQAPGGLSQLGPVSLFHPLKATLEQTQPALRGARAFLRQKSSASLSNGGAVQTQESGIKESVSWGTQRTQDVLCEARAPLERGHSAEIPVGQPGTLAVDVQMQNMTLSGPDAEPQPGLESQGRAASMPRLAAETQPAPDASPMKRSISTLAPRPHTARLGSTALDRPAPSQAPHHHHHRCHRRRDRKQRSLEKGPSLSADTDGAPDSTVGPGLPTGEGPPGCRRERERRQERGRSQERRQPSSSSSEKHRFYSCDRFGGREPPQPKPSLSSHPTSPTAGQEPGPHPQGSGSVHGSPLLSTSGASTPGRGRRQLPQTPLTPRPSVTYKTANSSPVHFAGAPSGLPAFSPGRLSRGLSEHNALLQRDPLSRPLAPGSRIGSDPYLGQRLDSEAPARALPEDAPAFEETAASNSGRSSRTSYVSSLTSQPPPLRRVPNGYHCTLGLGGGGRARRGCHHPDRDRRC

Target: T1, zCachd1_GFP (zebrafish) (UniProt E7F5Q0)
T1 sequence: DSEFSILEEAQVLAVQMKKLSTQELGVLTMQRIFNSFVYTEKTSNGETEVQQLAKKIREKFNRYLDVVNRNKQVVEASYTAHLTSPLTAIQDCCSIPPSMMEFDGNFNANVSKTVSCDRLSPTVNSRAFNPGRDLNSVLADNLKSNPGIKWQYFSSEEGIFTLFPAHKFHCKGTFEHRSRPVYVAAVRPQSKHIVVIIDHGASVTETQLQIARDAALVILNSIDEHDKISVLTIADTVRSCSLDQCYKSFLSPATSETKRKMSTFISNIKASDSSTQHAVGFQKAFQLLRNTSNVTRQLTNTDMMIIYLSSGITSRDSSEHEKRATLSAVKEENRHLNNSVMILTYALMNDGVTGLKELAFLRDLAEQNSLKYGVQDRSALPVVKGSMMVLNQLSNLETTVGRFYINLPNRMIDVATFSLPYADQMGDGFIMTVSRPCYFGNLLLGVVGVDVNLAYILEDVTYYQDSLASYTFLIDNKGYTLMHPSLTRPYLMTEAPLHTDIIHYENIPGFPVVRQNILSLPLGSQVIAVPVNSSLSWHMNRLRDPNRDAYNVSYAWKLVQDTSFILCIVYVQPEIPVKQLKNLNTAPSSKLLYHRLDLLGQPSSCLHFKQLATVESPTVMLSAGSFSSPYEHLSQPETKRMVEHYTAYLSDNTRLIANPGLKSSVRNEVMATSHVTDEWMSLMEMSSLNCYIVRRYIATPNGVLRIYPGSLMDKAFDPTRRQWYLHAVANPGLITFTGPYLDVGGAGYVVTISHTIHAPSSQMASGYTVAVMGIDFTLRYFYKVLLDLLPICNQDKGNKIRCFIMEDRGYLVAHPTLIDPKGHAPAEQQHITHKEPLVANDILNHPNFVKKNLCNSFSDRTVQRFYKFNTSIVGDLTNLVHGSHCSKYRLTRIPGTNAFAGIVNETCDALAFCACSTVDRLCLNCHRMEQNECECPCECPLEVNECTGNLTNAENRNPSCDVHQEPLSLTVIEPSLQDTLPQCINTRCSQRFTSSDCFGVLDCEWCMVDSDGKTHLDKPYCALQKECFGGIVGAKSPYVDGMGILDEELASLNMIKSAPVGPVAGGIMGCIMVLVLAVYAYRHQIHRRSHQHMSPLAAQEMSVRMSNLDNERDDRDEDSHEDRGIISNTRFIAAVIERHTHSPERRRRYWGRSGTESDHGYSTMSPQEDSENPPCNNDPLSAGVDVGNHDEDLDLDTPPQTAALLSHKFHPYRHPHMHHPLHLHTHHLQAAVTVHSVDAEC
Assay: co-IP; reverse co-IP: tsA-201 cells co-transfected with Cachd1_GFP, β1b and CaV2.2 (2:1:2); as the other co-IP but 150 mM NaCl in the co-IP buffer and two washes with 0.1% digitonin; IP with anti-GFP Ab; western blot

binding: binds
Substance: CaV2.2-HA (from UniProt Q05152 1-2339)
